According to PubChem BioAssay AID218 (DTP/NCI, 2004):
The list shows only some results of the screen, not a fair sample: it gathers tests that were run many times, whatever their T/C, doses with no T/C, and many T/C values between a quarter and a half above the control. Other doses and runs of a compound stand elsewhere. T/C: endpoint of the treated group in % of that of the vehicle group. Schedule codes are those of the source, taken here to give the interval after Q, in days (D) or hours (H), and the number of doses after X. Some doses have a count of surviving animals in place of a T/C: the source files T/C as zero there, which appears to mark a toxic dose or a test without result, not a measured value. Counts of survivors are from the toxicity check (mostly the fifth day) where no day follows; animals may have died later.

Tested on: C57BL/6 mice, Adenocarcinoma 755 sc, tumor weight T/C
Experiment: NCI In Vivo Anticancer Drug Screen. Data for tumor model Adenocarcinoma 755 (subcutaneous) in C57BL/6 mice
Conditions: T/C endpoint: mean tumor weight, higher T/C = larger tumour
Procedure: The antitumor activity of compounds was measured in mice bearing transplantable tumors. Survival or tumor size were measured and the results are expressed as the measurement made in the treated group (T) divided by the measurement made in the vehicle treated control group (C). The tumor model used in this assay is Adenocarcinoma 755 (subcutaneous) in C57BL/6 mice

Cn1cnc2ncnc(Cl)c21
T/C (dose: 100.0 mg/kg/injection, schedule: Q01DX011 (ip), vehicle: carboxymethylcellulose (CMC), evaluated on day 12): 143 % of control

Nc1nc2n[nH]nc2c(=O)[nH]1
survivor count (dose: 75.0 mg/kg/injection, schedule: Q01DX011 (sc), vehicle: saline): 6 of 10

OCC1OC(n2cnc3cncnc32)C(O)C1O (configuration not stated)
survivor count (dose: 15.0 mg/kg/injection, schedule: Q01DX011 (ip), vehicle: saline): 0 of 10
survivor count (dose: 25.0 mg/kg/injection, schedule: Q01DX011 (ip), vehicle: saline): 0 of 10

CCCCNc1ncnc2nc[nH]c12
survivor count (dose: 40.0 mg/kg/injection, schedule: Q01DX011 (ip), vehicle: carboxymethylcellulose (CMC)): 5 of 10
survivor count (dose: 50.0 mg/kg/injection, schedule: Q01DX011 (ip), vehicle: saline): 3 of 10
survivor count (dose: 100.0 mg/kg/injection, schedule: Q01DX011 (ip), vehicle: saline): 0 of 10

c1ccc2nc(-c3cc4ccccc4s3)ccc2c1
survivor count (dose: 133.0 mg/kg/injection, schedule: Q01DX011 (ip), vehicle: saline): 4 of 10
survivor count (dose: 200.0 mg/kg/injection, schedule: Q01DX011 (ip), vehicle: saline): 6 of 10
survivor count (dose: 450.0 mg/kg/injection, schedule: Q01DX011 (ip), vehicle: saline): 6 of 10

Nc1nc(=S)c2ncn(C3OC(COC(=O)c4ccccc4)C(OC(=O)c4ccccc4)C3OC(=O)c3ccccc3)c2[nH]1 (configuration not stated)
survivor count (dose: 50.0 mg/kg/injection, schedule: Q01DX011 (ip), vehicle: methylcellulose (MC)): 3 of 10

CC(C)C(=O)OCC1OC(n2cnc3c(=S)nc(N)[nH]c32)C(OC(=O)C(C)C)C1OC(=O)C(C)C (configuration not stated)
survivor count (dose: 6.0 mg/kg/injection, schedule: Q01DX011 (ip), vehicle: saline): 2 of 10
survivor count (dose: 12.0 mg/kg/injection, schedule: Q01DX011 (ip), vehicle: saline): 0 of 10

CCOC(N)=O
survivor count (dose: 500.0 mg/kg/injection, schedule: Q01DX011 (ip), vehicle: saline): 5 of 10
survivor count (dose: 800.0 mg/kg/injection, schedule: Q01DX011 (ip), vehicle: saline): 4 of 10
survivor count (dose: 1000.0 mg/kg/injection, schedule: Q01DX011 (ip), vehicle: saline): 0 of 10

Nc1[nH]c(=S)nc2nc[nH]c12
survivor count (dose: 40.0 mg/kg/injection, schedule: Q02DX006 (ip), vehicle: saline): 0 of 10
